Results deposited as PubChem BioAssay AID743121 (NCATS, 2013)
The whole screen tested about 26,000 reagents; below is an unselected part. In the full data, 167 (0.63%) got an active call. 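Calls are per gene from RSA p-values that are not deposited; an individual active-marked siRNA can sensitise only weakly.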 Entries without a mark were called inactive. Reagents against one gene are numbered here. Further read-outs or replicates are left out here.

Test: 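Genes whose silencing strengthens cell killing by camptothecin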 (primary screen)
Cells: MDA-MB-231 cells, a human breast cancer line
Reagent: single siRNA against human genes, 20 nM siRNA (0.8 pmol per well)
Timing: 120 h (drug added 48 h after transfection, read 72 h later)
Challenge: camptothecin 20 nM (about EC30) for 72 h; vehicle 0.1% DMSO in parallel plates
Measured: 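CellTiter-Glo ATP signal, scaled to control siRNA as percent viability; sensitisation given as log2 of untreated divided by camptothecin-treated viability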
Scale: log2 vehicle/camptothecin viability: higher = stronger sensitisation to camptothecin
Hit rule: 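Active genes have an RSA gene-level p-value below 0.001, computed from the ratios of their separate siRNAs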

log2 vehicle/camptothecin viability, by gene knocked down and reagent
KCNJ6 (potassium inwardly rectifying channel subfamily J member 6): #1 -0.0229; #2 -0.606; #3 -0.2; #4 -0.309
SHARPIN (SHANK associated RH domain interactor): #1 -0.00376; #2 -0.485; #3 0.268; #4 -0.221
GABRD (gamma-aminobutyric acid type A receptor subunit delta): #1 -0.0233; #2 -0.565; #3 0.433
RIPK1 (receptor interacting serine/threonine kinase 1): #1 -0.541; #2 0.234; #3 -0.21; #4 0.233
KMT2A (lysine methyltransferase 2A): #1 0.335; #2 -0.171; #3 -0.191
SERPINB2 (serpin family B member 2): #1 -0.324; #2 -0.294; #3 0.0794; #4 -0.0907
SNRPD3 (small nuclear ribonucleoprotein D3 polypeptide): #1 -0.351; #2 -0.415; #3 -0.647; #4 -0.557
BCL11B (BCL11 transcription factor B): #1 0.199; #2 -0.36; #3 1.06
S1PR2 (sphingosine-1-phosphate receptor 2): #1 -0.147; #2 -0.19; #3 -0.146; #4 -0.0484
GRK6 (G protein-coupled receptor kinase 6): #1 0.482; #2 -0.635; #3 -0.121; #4 -0.364
TTBK1 (tau tubulin kinase 1): #1 -0.221; #2 0.0844; #3 -0.539; #4 -0.196
SLC25A2: #1 -0.315; #2 -0.319; #3 -0.167; #4 -0.218
SOD2 (superoxide dismutase 2): #1 0.523; #2 -0.365; #3 -0.103; #4 -0.0797
SELP (selectin P): #1 -0.089; #2 -0.186; #3 -0.509; #4 -0.0285
SLAMF9 (SLAM family member 9): #1 0.493; #2 0.285; #3 -0.0349; #4 -0.088

13 entries from above, sorted by “log2 vehicle/camptothecin viability”, ascending:
gene knocked down	reagent	log2 vehicle/camptothecin viability
SELP (selectin P)	3	-0.509
SOD2 (superoxide dismutase 2)	2	-0.365
SLC25A2	4	-0.218
SELP (selectin P)	2	-0.186
SOD2 (superoxide dismutase 2)	3	-0.103
SELP (selectin P)	1	-0.089
SLAMF9 (SLAM family member 9)	4	-0.088
SOD2 (superoxide dismutase 2)	4	-0.0797
SLAMF9 (SLAM family member 9)	3	-0.0349
SELP (selectin P)	4	-0.0285
SLAMF9 (SLAM family member 9)	2	0.285
SLAMF9 (SLAM family member 9)	1	0.493
SOD2 (superoxide dismutase 2)	1	0.523

The listing continues.
log2 vehicle/camptothecin viability, by gene knocked down and reagent
CREM (cAMP responsive element modulator): #1 0.0625; #2 -0.467; #3 -0.383; #4 -0.233; #5 -0.23; #6 -0.396
REV3L (REV3 like, DNA directed polymerase zeta catalytic subunit): #1 -0.616; #2 -0.44; #3 0.0984; #4 -0.762
RPLP2 (ribosomal protein lateral stalk subunit P2): #1 -0.335; #2 -0.219; #3 -0.164
SCARA5 (scavenger receptor class A member 5): #1 -0.332; #2 1.24; #3 0.0137; #4 -0.334
SLC25A19: #1 -0.311; #2 -0.275; #3 -0.384; #4 -0.547
CEP85 (centrosomal protein 85): #1 0.108; #2 -0.362; #3 -0.221; #4 -0.223
PIAS1 (protein inhibitor of activated STAT 1): #1 -0.56; #2 -0.168; #3 -0.373; #4 -0.271
ABCD3 (ATP binding cassette subfamily D member 3): #1 -0.107; #2 -0.154; #3 -0.0441; #4 0.0928
